Experimental data published in PubChem BioAssay AID624296 (National Center for Advancing Translational Sciences (NCATS), 2012).
The entries are a selection whose mix differs from that of the whole data set. Inconclusive results are not listed. Activity calls are given as the source filed them. The call rests on the fitted dose curve; in most records, active means well fitted activation curve with a large enough effect; inconclusive means small, poorly fitted or top-dose-only effect; inactive means no such curve, though single readings can be large or run the other way.

test: A quantitative high throughput screen for small molecules that induce DNA re-replication in MCF 10a normal breast cells.; further: nearly all actives have a fitted effect of over 50% in size; conditions: MCF 10A DNA re-replication, Hoechst nuclear intensity, 48 h
Excerpt: H Molecular Libraries Probe Production Network [MLPCN]
NIH Chemical Genomics Center [NCGC]
Assay Provider: Melvin DePamphilis, NICHD, NIH
Eukaryotic cells normally restrict genome duplication to once per cell division. When this process is aberrant, DNA re-replication occurs when cells reinitiate DNA replication before the first round of replication is complete. DNA re-replication induces the DNA damage response, arrests cell proliferation, and triggers apoptosis. The cell cycle components cyclin A, Cdt-1, Cdc6 and geminin are critical regulators of this process and their misregulation results in DNA re-replication in normal and cancer cells. To identify compounds that induce re-replication in normal cells, an image-based assay was used to measure DNA content of nuclei, as detected by the fluorescent DNA binding dye, Hoechst. Cell nuclei were imaged by a fluorescence scanning plate imager and compounds that induce DNA re-replication were identified by the increase of nuclei with elevated fluorescence intensity
For screening, 250 cells in 5 uL/well were dispensed into black clear 1536-well plates (Aurora) using a solenoid-based dispenser. Following transfer of 23 nL compound or DMSO vehicle by a pin tool, the plates were incubated 48 hr at 37 C and 5% CO2. […]
Potency means the concentration at half of the fitted maximal effect.

Which Potency does the source give for `COc1c(O)cc2c(c1OC)-c1ccc(OC)c(=O)cc1C(NC(C)=O)CC2` (stereo unspecified) here?
Its Potency is active: 259 nM.
